Measurements: the supplement of paper PMC4604168 (melanoma cell lines)
Some of the results follow. Single values are uncertain, as repeats are few or missing.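 Imaging used 1,536-well plates; nuclei positive for cleaved PARP by antibody were divided by total DNA-stained nuclei to yield the apoptosis fraction. Doses for screening kept most cells viable, and cell lines differ markedly in resting and induced cleaved-PARP levels.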

How the values were obtained:
Assay in all cases: cleaved PARP positive nuclei fraction relative to DMSO control; melanoma cells; higher = more apoptosis
Conditions in all cases: library dose: low library concentration; 72 h
MZ2-MEL = system: MZ2-MEL
MeWo = system: MeWo
RPMI7951 = system: RPMI7951
RVH-421 = system: RVH-421
SkMel28 = system: SkMel28
SkMel2 = system: SkMel2
SkMel30 = system: SkMel30
UACC62 = system: UACC62
WM115 = system: WM115
WM1716 = system: WM1716
WM1745 = system: WM1745
WM3526 = system: WM3526
WM3619 = system: WM3619
WM451Lu = system: WM451Lu

Structure (SMILES): Cc1cc(Nc2cc(N3CCN(C)CC3)nc(Sc3ccc(NC(=O)C4CC4)cc3)n2)n[nH]1 [Tozasertib] + Nc1ncn([C@H]2C[C@H](O)[C@@H](CO)O2)c(=O)n1 [decitabine] (first compound 0.006 µM, partner dose 0.1 µM)
- cleaved PARP positive nuclei fraction (MZ2-MEL): 92.5%
- cleaved PARP positive nuclei fraction (MeWo): 319%
- cleaved PARP positive nuclei fraction (RPMI7951): 132%
- cleaved PARP positive nuclei fraction (RVH-421): 112%
- cleaved PARP positive nuclei fraction (SkMel28): 88.7%
- cleaved PARP positive nuclei fraction (SkMel2): 126%
- cleaved PARP positive nuclei fraction (SkMel30): 123%
- cleaved PARP positive nuclei fraction (UACC62): 174%
- cleaved PARP positive nuclei fraction (WM115): 294%
- cleaved PARP positive nuclei fraction (WM1716): 95.7%
- cleaved PARP positive nuclei fraction (WM1745): 124%
- cleaved PARP positive nuclei fraction (WM3526): 148%
- cleaved PARP positive nuclei fraction (WM3619): 86.2%
- cleaved PARP positive nuclei fraction (WM451Lu): 37.2%

Structure (SMILES): N#CC[C@H](C1CCCC1)n1cc(-c2ncnc3[nH]ccc23)cn1 [ruxolitinib] + Cc1cc(Nc2cc(N3CCN(C)CC3)nc(/C=C/c3ccccc3)n2)n[nH]1 [ENMD2076] (first compound 1 µM, partner dose 0.04 µM)
- cleaved PARP positive nuclei fraction (MZ2-MEL): 102%
- cleaved PARP positive nuclei fraction (MeWo): 326%
- cleaved PARP positive nuclei fraction (RPMI7951): 119%
- cleaved PARP positive nuclei fraction (RVH-421): 68.1%
- cleaved PARP positive nuclei fraction (SkMel28): 74.1%
- cleaved PARP positive nuclei fraction (SkMel2): 58.2%
- cleaved PARP positive nuclei fraction (SkMel30): 32%
- cleaved PARP positive nuclei fraction (UACC62): 56.8%
- cleaved PARP positive nuclei fraction (WM115): 42.6%
- cleaved PARP positive nuclei fraction (WM1716): 269%
- cleaved PARP positive nuclei fraction (WM1745): 105%
- cleaved PARP positive nuclei fraction (WM3526): 43.3%
- cleaved PARP positive nuclei fraction (WM3619): 95.3%
- cleaved PARP positive nuclei fraction (WM451Lu): 82.5%

Structure (SMILES): COc1cc([C@@H]2c3cc4c(cc3[C@@H](O[C@@H]3O[C@@H]5CO[C@@H](C)O[C@H]5[C@H](O)[C@H]3O)[C@H]3COC(=O)[C@H]23)OCO4)cc(OC)c1O [etoposide] + Cn1cnc2c(F)c(Nc3ccc(Br)cc3Cl)c(C(=O)NOCCO)cc21 [selumetinib] (first compound 0.02 µM, partner dose 0.015 µM)
- cleaved PARP positive nuclei fraction (MZ2-MEL): 234%
- cleaved PARP positive nuclei fraction (MeWo): 31.2%
- cleaved PARP positive nuclei fraction (RPMI7951): 24.1%
- cleaved PARP positive nuclei fraction (RVH-421): 745%
- cleaved PARP positive nuclei fraction (SkMel28): 58.8%
- cleaved PARP positive nuclei fraction (SkMel2): 154%
- cleaved PARP positive nuclei fraction (SkMel30): 69.8%
- cleaved PARP positive nuclei fraction (UACC62): 88.2%
- cleaved PARP positive nuclei fraction (WM115): 26.3%
- cleaved PARP positive nuclei fraction (WM1716): 43.5%
- cleaved PARP positive nuclei fraction (WM1745): 110%
- cleaved PARP positive nuclei fraction (WM3526): 45.9%
- cleaved PARP positive nuclei fraction (WM3619): 111%
- cleaved PARP positive nuclei fraction (WM451Lu): 44.3%

Structure (SMILES): N#CC[C@H](C1CCCC1)n1cc(-c2ncnc3[nH]ccc23)cn1 [ruxolitinib] + CN1CCN(c2ccc3nc(-c4c(N)c5c(F)cccc5[nH]c4=O)[nH]c3c2)CC1 [Dovitinib] (first compound 1 µM, partner dose 0.1 µM)
- cleaved PARP positive nuclei fraction (MZ2-MEL): 122%
- cleaved PARP positive nuclei fraction (MeWo): 97.7%
- cleaved PARP positive nuclei fraction (RPMI7951): 45.9%
- cleaved PARP positive nuclei fraction (RVH-421): 106%
- cleaved PARP positive nuclei fraction (SkMel28): 27.7%
- cleaved PARP positive nuclei fraction (SkMel2): 70.3%
- cleaved PARP positive nuclei fraction (SkMel30): 94.9%
- cleaved PARP positive nuclei fraction (UACC62): 65.4%
- cleaved PARP positive nuclei fraction (WM115): 77.1%
- cleaved PARP positive nuclei fraction (WM1716): 30%
- cleaved PARP positive nuclei fraction (WM1745): 94.2%
- cleaved PARP positive nuclei fraction (WM3526): 20%
- cleaved PARP positive nuclei fraction (WM3619): 77.9%
- cleaved PARP positive nuclei fraction (WM451Lu): 87.8%

Structure (SMILES): O=C(Nc1cc(C(F)(F)F)cc(C(F)(F)F)c1)c1cc(Cl)ccc1O + CS(=O)(=O)CCNCc1ccc(-c2ccc3ncnc(Nc4ccc(OCc5cccc(F)c5)c(Cl)c4)c3c2)o1 [lapatinib] (first compound 0.016 µM, partner dose 0.8 µM)
- cleaved PARP positive nuclei fraction (MZ2-MEL): 119%
- cleaved PARP positive nuclei fraction (MeWo): 136%
- cleaved PARP positive nuclei fraction (RPMI7951): 129%
- cleaved PARP positive nuclei fraction (RVH-421): 124%
- cleaved PARP positive nuclei fraction (SkMel28): 175%
- cleaved PARP positive nuclei fraction (SkMel2): 88.3%
- cleaved PARP positive nuclei fraction (SkMel30): 46.3%
- cleaved PARP positive nuclei fraction (UACC62): 89.8%
- cleaved PARP positive nuclei fraction (WM115): 150%
- cleaved PARP positive nuclei fraction (WM1716): 71.5%
- cleaved PARP positive nuclei fraction (WM1745): 108%
- cleaved PARP positive nuclei fraction (WM3526): 111%
- cleaved PARP positive nuclei fraction (WM3619): 185%
- cleaved PARP positive nuclei fraction (WM451Lu): 225%

Structure (SMILES): N#CC[C@H](C1CCCC1)n1cc(-c2ncnc3[nH]ccc23)cn1 [ruxolitinib] + O=C(/C=C/c1cccnc1)NCCCCC1CCN(C(=O)c2ccccc2)CC1 [FK866] (first compound 1 µM, partner dose 0.01 µM)
- cleaved PARP positive nuclei fraction (MZ2-MEL): 594%
- cleaved PARP positive nuclei fraction (MeWo): 25.4%
- cleaved PARP positive nuclei fraction (RPMI7951): 33.9%
- cleaved PARP positive nuclei fraction (RVH-421): 251%
- cleaved PARP positive nuclei fraction (SkMel28): 72.6%
- cleaved PARP positive nuclei fraction (SkMel2): 940%
- cleaved PARP positive nuclei fraction (SkMel30): 27.9%
- cleaved PARP positive nuclei fraction (UACC62): 36.3%
- cleaved PARP positive nuclei fraction (WM115): 63.9%
- cleaved PARP positive nuclei fraction (WM1716): 31.4%
- cleaved PARP positive nuclei fraction (WM1745): 161%
- cleaved PARP positive nuclei fraction (WM3526): 82.2%
- cleaved PARP positive nuclei fraction (WM3619): 98%
- cleaved PARP positive nuclei fraction (WM451Lu): 78.5%
